Reference: paper PMC9105187
No constants are given. Whether binding was seen depends on the method and setting. In cells and extracts the contact can be indirect. Some entries that bind do so weakly or less than the wild type.

Sequences of proteins named here, by UniProt entry; tags and fusion partners are left off. A change or cut given only in a name is not applied to a line headed by its entry. A line that says so, or that is headed by a name, gives the form on record, which may keep a tag or linker. Residues count along the entry.
UniProt Q12983: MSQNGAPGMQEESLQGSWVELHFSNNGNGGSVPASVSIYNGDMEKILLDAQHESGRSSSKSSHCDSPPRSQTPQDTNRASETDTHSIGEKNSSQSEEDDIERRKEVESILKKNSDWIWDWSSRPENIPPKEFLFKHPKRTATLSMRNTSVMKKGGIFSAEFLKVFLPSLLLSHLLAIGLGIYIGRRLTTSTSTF
UniProt P21796: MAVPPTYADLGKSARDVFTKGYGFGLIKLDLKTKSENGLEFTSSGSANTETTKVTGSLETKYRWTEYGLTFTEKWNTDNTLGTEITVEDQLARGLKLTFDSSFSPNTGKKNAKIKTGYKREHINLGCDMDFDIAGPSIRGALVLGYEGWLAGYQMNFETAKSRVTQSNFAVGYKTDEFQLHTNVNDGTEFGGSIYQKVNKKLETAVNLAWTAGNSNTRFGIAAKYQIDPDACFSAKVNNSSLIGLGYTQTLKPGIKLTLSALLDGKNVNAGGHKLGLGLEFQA
UniProt P04406: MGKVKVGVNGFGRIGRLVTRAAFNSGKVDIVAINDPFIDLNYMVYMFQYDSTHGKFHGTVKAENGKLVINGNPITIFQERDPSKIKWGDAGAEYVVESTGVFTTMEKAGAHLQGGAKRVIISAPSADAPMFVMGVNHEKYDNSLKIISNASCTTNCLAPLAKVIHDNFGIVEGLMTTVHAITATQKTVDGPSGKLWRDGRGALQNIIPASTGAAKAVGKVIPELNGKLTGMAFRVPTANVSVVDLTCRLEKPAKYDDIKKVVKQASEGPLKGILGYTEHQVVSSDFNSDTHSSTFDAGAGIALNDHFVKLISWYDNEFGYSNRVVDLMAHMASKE
UniProt O95202, residues 116-739: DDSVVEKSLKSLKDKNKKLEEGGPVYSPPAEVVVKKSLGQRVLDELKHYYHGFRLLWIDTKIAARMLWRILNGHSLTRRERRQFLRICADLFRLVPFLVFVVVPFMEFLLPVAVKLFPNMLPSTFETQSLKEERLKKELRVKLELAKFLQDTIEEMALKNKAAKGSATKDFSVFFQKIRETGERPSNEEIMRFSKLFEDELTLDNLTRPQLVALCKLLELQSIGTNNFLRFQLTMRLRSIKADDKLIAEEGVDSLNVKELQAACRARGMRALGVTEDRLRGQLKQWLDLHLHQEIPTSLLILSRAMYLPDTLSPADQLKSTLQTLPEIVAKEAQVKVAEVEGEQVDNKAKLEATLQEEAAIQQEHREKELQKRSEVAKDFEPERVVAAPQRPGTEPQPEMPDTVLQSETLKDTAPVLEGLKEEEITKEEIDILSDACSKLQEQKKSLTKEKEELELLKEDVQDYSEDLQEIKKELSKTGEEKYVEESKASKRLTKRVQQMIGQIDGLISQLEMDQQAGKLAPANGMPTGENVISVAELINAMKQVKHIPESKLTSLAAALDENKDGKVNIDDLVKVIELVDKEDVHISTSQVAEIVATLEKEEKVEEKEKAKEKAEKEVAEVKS
sarcoplasmic/endoplasmic reticulum calcium ATPase isoform 2a (human) (P16615-2, form named): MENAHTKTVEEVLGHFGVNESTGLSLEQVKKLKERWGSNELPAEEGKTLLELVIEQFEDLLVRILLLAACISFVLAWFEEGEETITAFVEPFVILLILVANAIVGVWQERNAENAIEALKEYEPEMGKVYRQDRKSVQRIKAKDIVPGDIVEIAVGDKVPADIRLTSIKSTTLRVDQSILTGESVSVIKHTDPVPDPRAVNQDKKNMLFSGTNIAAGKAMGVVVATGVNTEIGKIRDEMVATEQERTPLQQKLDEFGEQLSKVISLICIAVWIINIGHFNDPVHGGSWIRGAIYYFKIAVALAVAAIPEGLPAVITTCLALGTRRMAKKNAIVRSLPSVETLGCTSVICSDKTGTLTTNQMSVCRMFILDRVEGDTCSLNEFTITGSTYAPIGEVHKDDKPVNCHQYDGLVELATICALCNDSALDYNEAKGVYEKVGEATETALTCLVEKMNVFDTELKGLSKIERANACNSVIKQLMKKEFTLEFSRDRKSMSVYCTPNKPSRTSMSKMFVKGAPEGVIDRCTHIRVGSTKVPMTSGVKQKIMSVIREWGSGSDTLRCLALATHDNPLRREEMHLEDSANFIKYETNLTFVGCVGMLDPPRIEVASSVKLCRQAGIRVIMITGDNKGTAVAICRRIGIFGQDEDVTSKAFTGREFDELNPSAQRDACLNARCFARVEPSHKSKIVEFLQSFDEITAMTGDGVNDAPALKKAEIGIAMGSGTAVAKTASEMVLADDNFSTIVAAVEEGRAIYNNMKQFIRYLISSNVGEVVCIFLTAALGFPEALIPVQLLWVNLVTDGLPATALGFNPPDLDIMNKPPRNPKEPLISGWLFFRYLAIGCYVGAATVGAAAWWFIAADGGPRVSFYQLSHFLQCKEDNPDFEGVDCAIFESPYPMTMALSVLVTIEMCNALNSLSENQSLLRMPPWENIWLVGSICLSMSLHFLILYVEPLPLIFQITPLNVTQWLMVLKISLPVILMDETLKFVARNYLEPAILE

Molecular target: Bcl-2 nineteen kilodalton interacting protein 3 (human) (human (endogenous in LV myocardium)) (UniProt Q12983)
Assay: co-IP; 250 ug lysate of human HFrEF LV myocardium (n = 3) with 5 ug mouse monoclonal BNIP3 antibody (Abcam ab10433), Dynabeads Protein G; western blot

binding	Substance
binds	voltage-dependent anion channel isoform 1 (human) (from UniProt P21796 1-283)
no binding	GAPDH (human) (from UniProt P04406 1-335)
binds	mt-proton/calcium exchanger protein LETM1 (human) (from UniProt O95202 116-739)
binds	sarcoplasmic/endoplasmic reticulum calcium ATPase isoform 2a (human) (from UniProt P16615-2 1-997)
